{"source": "paper PMC3374801", "about": "“Artemisinin Inhibits Chloroplast Electron Transport Activity: Mode of Action” (PLoS ONE, 2012)", "tested_on": "rice leaves", "test": "Fast Chl. a (O-J-I-P) fluorescence transient in leaves of artemisinin sprayed plants", "format": "in vivo, Rice (Oryza sativa var. Safari)", "details": "leaves of sprayed rice plants (~1.86 µmol/plant); dark adapted", "description": "Twenty one day old rice plants were sprayed with artemisinin twice at a 24 h interval. One mililiter of 74.4 mM artemisinin in 1% (V/V) DMSO, 0.1% (V/V) TWEEN-20 was diluted 100 fold with water and used to treat 40 plants (∼1.86 µmol of artemisinin/plant). Control plants were sprayed with the same solution without artemisinin. The 4th (quaternary) leaf was harvested 20 h after the 2nd spray and used for all experiments. The individual effect of the surfactant and DMSO-plus-surfactant was first evaluated against water control. Since no effect was obtained with these variations, we have routinely used the DMSO plus the surfactant sprayed leaves as control against artemisinin treated leaves and in figures the same has been depicted as DMSO (control). The room temperature Chl. a fluorescence technique was used to study the photosynthetic activity in intact leaf samples. The fast Chl. a transients (O-J-I-P) in millisecond (ms) time span was studied with plant efficiency analyzer (Handy PEA fluorimeter) following Strasser et al., while the relative thylakoid electron transport, membrane energization and carbon fixation activities were evaluated from slow fluorescence transients, obtained using FMS2 instrument (Hansatech) as per the detail outlined in Baker. The readouts from Handy PEA were analyzed using biolyzerhp3 software."}
{"smiles": "C[C@@H]1CC[C@H]2[C@@H](C)C(=O)O[C@@H]3O[C@@]4(C)CC[C@@H]1[C@]32OO4", "note": "[Artemisinin]", "values": [{"measurement": "FO (Chl. a fluorescence)", "result": "368±11"}, {"measurement": "Fm (Chl. a fluorescence)", "result": "1757±19"}]}
